The whole screen tested about 390,000 compounds, of which about 4,000 (1%) were called active. The shares of active, inactive and inconclusive entries below differ from those in the screen. Calls follow the shape of the dose curve; as a rule, active = well fitted inhibition curve with a large enough effect; inconclusive = small, poorly fitted or top-dose-only effect, or another doubt; inactive = no such curve, though single readings can be large or run the other way. Where the call is inconclusive, the potency comes from a doubtful curve fit.
Each compound was assayed against DNA polymerase iota (Homo sapiens) (UniProt Q9UNA4) (assay: qHTS for Inhibitors of Polymerase Iota). Settings: Pol iota fluorescent replication assay, 10 min; series mostly up to 115 µM.
In short: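 Fluorescent replication assay read twice, at 0 min and 10 min after adding 50 nM (final) substrate. Enzyme (10 nM) and compounds were first incubated 15 min at room temperature; enzyme-free buffer wells were negative controls.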
Potency is read from the fitted curve at half-maximal effect.

The chains behind the UniProt entries cited, without tags or fusion partners. Where a name states a change or a piece, a line headed by the entry shows the natural chain unless it says otherwise.
UniProt Q9UNA4: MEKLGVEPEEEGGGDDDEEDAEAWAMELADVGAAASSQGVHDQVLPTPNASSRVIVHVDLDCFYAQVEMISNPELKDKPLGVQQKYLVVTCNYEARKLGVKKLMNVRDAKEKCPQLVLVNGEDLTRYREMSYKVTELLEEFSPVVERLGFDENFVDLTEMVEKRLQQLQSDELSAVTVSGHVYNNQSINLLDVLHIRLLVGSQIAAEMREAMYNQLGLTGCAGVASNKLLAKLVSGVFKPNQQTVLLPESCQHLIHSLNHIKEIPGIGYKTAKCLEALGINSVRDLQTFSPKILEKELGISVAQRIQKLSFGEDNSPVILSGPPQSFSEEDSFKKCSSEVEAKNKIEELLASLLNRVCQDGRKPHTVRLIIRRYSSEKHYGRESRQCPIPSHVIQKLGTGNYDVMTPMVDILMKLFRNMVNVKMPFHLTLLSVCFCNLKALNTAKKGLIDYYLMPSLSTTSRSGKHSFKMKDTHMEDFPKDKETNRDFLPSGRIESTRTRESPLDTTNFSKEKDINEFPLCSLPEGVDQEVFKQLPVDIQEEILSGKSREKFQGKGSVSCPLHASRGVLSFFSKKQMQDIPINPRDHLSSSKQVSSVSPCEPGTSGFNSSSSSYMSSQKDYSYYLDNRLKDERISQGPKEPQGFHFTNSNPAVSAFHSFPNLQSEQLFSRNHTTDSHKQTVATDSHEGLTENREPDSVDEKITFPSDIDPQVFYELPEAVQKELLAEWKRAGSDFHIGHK

Potency, active:
CC(=O)c1cccc(NC(=O)CSc2nc(C3CC3)nc3ccccc23)c1 25.1 µM, COc1ccc(NS(=O)(=O)c2ccc(OC)c(N(C)S(=O)(=O)c3ccc(Cl)cc3)c2)cc1 89.1 µM, Cc1ccc(OCC(=O)N/N=C/C=C/c2ccco2)c(Br)c1 50.1 µM

Potency, inactive:
NC(=O)CC(NC(=O)Cc1cccc2ccccc12)c1ccc(NC2CCN(Cc3ccccc3)CC2)c([N+](=O)[O-])c1 (stereo not drawn), CCOc1cc(C(=O)NCCc2csc3nc(-c4ccc(C)cc4)nn23)cc(OCC)c1OCC, COc1cc(C2CC(=O)c3c(O)cc(O)cc3O2)ccc1O (stereo not drawn), Cc1cccc(N2CCN(C(=O)C3CC(=O)N(c4ccc5c(c4)OCCO5)C3)CC2C)c1 (stereo not drawn), CCC(=O)Nc1nnc(SCc2cc(=O)c3cc(C)ccc3[nH]2)s1, CCOc1ccc(CNS(=O)(=O)c2c(C(=O)N3CCC(C)CC3)c(C)n(C)c2C)cc1OC, COC(=O)c1cnc(Oc2ccc(NC(=O)NC(=O)c3ccccc3Cl)cc2)cc1C(F)(F)F, c1ccc2c(C(c3c[nH]c4ccccc34)c3c[nH]c4ccccc34)c[nH]c2c1, O=C1CCC(C(=O)N2CCCCCC2)CN1CCc1ccc(Cl)cc1 (stereo not drawn), COc1ccc(OC)c(N(C)S(=O)(=O)c2cc3c(cc2C)NC(=O)CO3)c1, CCc1nc2ccc(C(=O)N3CCN(c4ccccc4)CC3)cc2nc1CC, Cc1nnc(SCc2nnc(-c3cccs3)o2)n1C, COc1ccccc1-c1cc2nc(C)c(CCC(=O)Nc3ccc(Br)c(C)c3)c(C)n2n1, CCc1ccc(OC(C)C(=O)N2CCC(c3nc4ccccc4s3)CC2)cc1 (stereo not drawn), C[C@H](NC(=O)c1[nH]cnc1C(=O)Nc1ccc(Cl)cc1)c1ccccc1, O=C(NCCc1csc(-c2ccc(Cl)cc2)n1)c1cccs1, COc1ccc(-c2onc(C)c2C)cc1S(=O)(=O)N1c2ccccc2CC1C (stereo not drawn)

Potency, inconclusive:
Cc1cccc(C)c1NC(=O)CN(c1ccccn1)S(=O)(=O)c1ccc(F)cc1 79.4 µM [inhibitor, single point], COc1ccccc1-n1cnc(N)c1C(=O)c1ccccc1 35.5 µM [inhibitor, single point], O=C(O)COc1ccc(C=C2SC(=S)N(c3ccccc3)C2=O)cc1 28.2 µM [inhibitor, partial curve], CCOc1ccc(/C=C2\SC(=S)N(C(C(=O)O)c3ccccc3)C2=O)cc1OC (stereo not drawn) 50.1 µM [inhibitor, single point], O=C(O)c1ccc(O)c(O)c1 79.4 µM [inhibitor, partial curve], O=C(O)c1ccc2c(c1)C(=O)N(c1ccc(OCc3ccccc3)cc1)C2=O 25.1 µM [inhibitor, single point], O=[N+]([O-])c1cc(CN2CCCC2)c2cccnc2c1O 7.94 µM [inhibitor, full curve, poor fit], CCCNC(=O)C1CCN(S(=O)(=O)c2ccc(Br)cc2)CC1 89.1 µM [inhibitor, partial curve, poor fit], CCOc1ccccc1-n1cnc2cc(C(=O)NCc3ccco3)ccc21 11.2 µM [inhibitor, full curve, poor fit], CC1O[C@@H](OC2C(O)C(C)O[C@H](OC(=O)[C@]34CCC(C)(C)C[C@H]3C3=CCC5[C@@]6(C)CC(O)C(O[C@@H]7OC(CO)C(O)[C@@H](O)[C@@H]7O)[C@@](C)(C(=O)O)C6CC[C@@]5(C)[C@]3(CO)CC4)C2O[C@H]2OC(C)[C@@H](O[C@@H]3OCC(O[C@@H]4OC(CO)C(O)[C@H](O)C4O)[C@@H](O)[C@@H]3O)[C@H](O)C2O)C(O)C(O)C1O (stereo partly drawn) 25.1 µM [inhibitor, partial curve, poor fit], CN(C(=O)CSc1nc2scc(-c3ccccc3)c2c(=O)[nH]1)c1ccccc1 20 µM [inhibitor, partial curve, poor fit], CC(Oc1ccccc1)C(=O)N1CCC2(CC1)Oc1ccc(F)cc1C(=O)C21CC(c2cccnc2)=NO1 (stereo not drawn) 56.2 µM [inhibitor, partial curve, poor fit], O=C(Nc1ccccc1C(=O)O)c1cccc(NC(=O)c2ccc(Br)o2)c1 5.01 µM [inhibitor, full curve], O=S(=O)(/N=C(/Sc1ccccc1)c1ccccc1)c1ccc(Cl)cc1 1.78 µM [inhibitor, full curve, poor fit], OCCNc1nc(Nc2ccccc2Oc2ccccc2)nc(N2CCCC2)n1 14.1 µM [inhibitor, partial curve, poor fit], COC(=O)c1cc(N2C(=O)C3C4C=CC(CC4)C3C2=O)ccc1Cl (stereo not drawn) 89.1 µM [inhibitor, single point], NC(=O)C1=C[C@@H](c2ccc3c(c2)OCO3)C[C@@H](OCCCCO)O1 79.4 µM [inhibitor, partial curve, poor fit], Cc1cc(C)cc(NS(=O)(=O)c2ccc(Oc3ncc(C(F)(F)F)cc3Cl)cc2)c1 31.6 µM [inhibitor, full curve, poor fit], CC(OC(=O)CCc1nc2ccccc2c(=O)[nH]1)C(=O)Nc1ncc(Cl)cc1Cl (stereo not drawn) 70.8 µM [inhibitor, partial curve, poor fit], COc1cc(/C=C/c2cccc[n+]2C)ccc1OCC(=O)Nc1cccc(Cl)c1 56.2 µM [inhibitor, partial curve, poor fit], Cn1cccc1C(=O)OCc1cc(-c2ccco2)on1 79.4 µM [inhibitor, single point], COc1cccc(/C=C2\SC(=S)N(CCC(=O)NC3C=CS(=O)(=O)C3)C2=O)c1 (stereo not drawn) 89.1 µM [inhibitor, single point], O=C(CN1C(=O)/C(=C2/SC(=S)N(CCS(=O)(=O)O)C2=O)c2ccccc21)Nc1cccc(Br)c1 11.2 µM [inhibitor, partial curve, poor fit], O=C(NCc1ccc(F)cc1)c1cccc2c1C(=O)c1ccc(N3CCOCC3)cc1S2(=O)=O 89.1 µM [inhibitor, single point], COC(=O)c1cc2c(C)c(C)c3ccccn3c-2c1C(=O)OC 17.8 µM [inhibitor, partial curve, poor fit], O=C(O)c1cn(-c2ccc(F)cc2)c2cc(N3CCNCC3)c(F)cc2c1=O 22.4 µM [inhibitor, full curve, poor fit], COc1ccc(/C=C(/C(=O)c2ccc(Cl)cc2Cl)n2cncn2)cc1 25.1 µM [inhibitor, partial curve, poor fit], O=C(CSc1nncs1)NC(=O)NCc1ccco1 79.4 µM [inhibitor, single point], CCOC(=O)c1ccc(NC(=O)Nc2c[nH]c(=O)[nH]c2=O)cc1 44.7 µM [inhibitor, partial curve], COc1ccc(Nc2nc(N)nc(CN3CCOCC3)n2)cc1 39.8 µM [inhibitor, single point], CCn1cc(C(=O)NCCCN(C)C)c(=O)c2cc(F)c(N3CCN(C)CC3)cc21 20 µM [inhibitor, single point], COc1ccc(NC(=O)/C(C#N)=C/c2ccc(OCc3cc(=O)n4nc(C)sc4n3)cc2)cc1 50.1 µM [inhibitor, partial curve], CC(=O)Oc1ccccc1C(=O)C=Cc1cccc([N+](=O)[O-])c1 39.8 µM [inhibitor, single point], Cc1noc(C)c1C(=O)NCc1ccccc1Br 89.1 µM [inhibitor, single point], C1COCCNCCOCCOCCN1 39.8 µM [inhibitor, single point], Nn1c(SCC(=O)Nc2ccccc2F)nnc1C1CCCCC1 89.1 µM [inhibitor, single point], CCN1CCN(C(c2ccccc2)c2nnnn2Cc2ccccc2)CC1 (stereo not drawn) 39.8 µM [inhibitor, single point], Cc1cc(C)n(-c2ccc(C(=O)OCC(=O)c3ccc(Br)s3)cc2)n1 39.8 µM [inhibitor, partial curve, poor fit], CC1(c2ccccc2Cl)NC(=O)N(CC(=O)NC(=O)NCc2ccco2)C1=O (stereo not drawn) 11.2 µM [inhibitor, partial curve, poor fit], Cc1cc(C)c(C)c(S(=O)(=O)NCc2ccc(C(=O)N3CCCCC3)cc2)c1C 12.6 µM [inhibitor, single point], O=[N+]([O-])c1ccc(OCC(O)CN(CCO)CCO)cc1 (stereo not drawn) 39.8 µM [inhibitor, single point], Cc1ccc(S(=O)(=O)Cc2nc(-c3ccc(C(=O)NCc4ccccc4)cc3)oc2C)cc1 79.4 µM [inhibitor, partial curve], COC(=O)c1ccc(Cn2cnc3c(sc4nc(N5CCOCC5)c5c(c43)CCCC5)c2=O)o1 79.4 µM [inhibitor, partial curve, poor fit]

Reference: PubChem BioAssay AID588590 (National Center for Advancing Translational Sciences (NCATS), 2011)
